From PubChem BioAssay AID248 (DTP/NCI, 2004)
The list does not hold the whole screen: it is rich in T/C values a quarter to a half above the control, in often repeated tests (any T/C) and in doses without a T/C. Other doses and runs of a compound stand elsewhere. T/C gives the treated animals as a percentage of the vehicle group. Some doses have a count of surviving animals in place of a T/C: the source holds a T/C of zero for them, seemingly a mark for toxic or unscored doses. Some doses without a T/C left all or most animals alive at the check, yet need not have been tolerated: the source hardly ever lists a survival T/C far under the control, and the zero likely stands for such cases as well. Survivors were counted at the toxicity check, usually on the fifth day, unless a day is given; later deaths do not show. Schedules are NCI's codes, read here as Q, the interval in days (D) or hours (H), X, the number of doses. Some entries were tested several times; their values stand side by side, smallest first. Some schedules carry Z or #; the key to these is not given. Where survival is the endpoint, this PubChem deposit counts one and a half times the control or more as active, and values a quarter to a half above the control carry no call in these data; other NCI protocols may use other cut-offs.

Tested on: L1210 leukemia ip in BDF1 mice, survival T/C
Experiment: NCI In Vivo Anticancer Drug Screen. Data for tumor model L1210 Leukemia (intraperitoneal) in B6D2F1 (BDF1) mice
Conditions: T/C endpoint: mean survival time, higher T/C = longer survival
[1] = dose: 300.0 mg/kg/injection, schedule: Q01DX001 (ip), vehicle: saline
[2] = dose: 400.0 mg/kg/injection, schedule: Q04DX003 (ip), vehicle: Klucel (hydroxypropylcellulose) (HPC)
[3] = dose: 400.0 mg/kg/injection, schedule: Q04DX002 (ip), vehicle: saline
[4] = dose: 200.0 mg/kg/injection, schedule: Q04DX003 (ip), vehicle: Klucel (hydroxypropylcellulose) (HPC)
[5] = dose: 400.0 mg/kg/injection, schedule: Q01DX009 (ip), vehicle: Klucel (hydroxypropylcellulose) (HPC)
[6] = dose: 100.0 mg/kg/injection, schedule: Q04DX002 (ip), vehicle: saline

## Clc1ccc(CNc2ccccn2)s1
dose: 75.0 mg/kg/injection, schedule: Q01DX001 (ip), vehicle: saline
  survivor count: 6 of 6
[1]
  survivor count: 6 of 6

## CC[Si](C)(C)c1ccc(CCN2CC2)s1
dose: 200.0 mg/kg/injection, schedule: Q01DX001 (ip), vehicle: carboxymethylcellulose (CMC)
  survivor count: 0 of 4
dose: 400.0 mg/kg/injection, schedule: Q01DX001 (ip), vehicle: carboxymethylcellulose (CMC)
  survivor count: 0 of 4

## CN(C)CCSC(=O)N1c2ccccc2C(C)(C)c2ccccc21
dose: 100.0 mg/kg/injection, schedule: Q01DX009 (ip), vehicle: saline
  survivor count: 6 of 6
dose: 200.0 mg/kg/injection, schedule: Q01DX009 (ip), vehicle: saline
  survivor count: 4 of 6
dose: 400.0 mg/kg/injection, schedule: Q04DX003 (ip), vehicle: saline
  survivor count: 0 of 4

## O=C(O)C1CC(c2ccccc2)=C(c2ccccc2)CC1C(=O)O (stereo unspecified)
dose: 200.0 mg/kg/injection, schedule: Q04DX002 (ip), vehicle: Klucel (hydroxypropylcellulose) (HPC)
  T/C: 125 % of control
dose: 400.0 mg/kg/injection, schedule: Q04DX002 (ip), vehicle: Klucel (hydroxypropylcellulose) (HPC)
  survivor count: 0 of 3 and 1 of 3

## [O-]/[N+](=C\c1cccc(Cl)c1)c1ccccc1
[2]
  survivor count: 3 of 6

## CCOC(=O)c1[nH]c2ccccc2c1CN(CCCl)CCCl
dose: 40.0 mg/kg/injection, schedule: Q01DX Z (ip), vehicle: other
  T/C: 138 % of control
dose: 80.0 mg/kg/injection, schedule: Q01DX Z (ip), vehicle: other
  survivor count: 0 of 6

## CC(C)=NN=C(C)C
dose: 50.0 mg/kg/injection, schedule: Q01DX009 (ip), vehicle: saline
  survivor count: 6 of 6
dose: 100.0 mg/kg/injection, schedule: Q04DX003 (ip), vehicle: saline
  survivor count: 3 of 6
dose: 200.0 mg/kg/injection, schedule: Q01DX001 (ip), vehicle: saline
  survivor count: 0 of 6
dose: 400.0 mg/kg/injection, schedule: Q01DX001 (ip), vehicle: saline
  survivor count: 0 of 6

## CCOC(=O)COc1cc(Cl)c(Cl)cc1Cl
dose: 150.0 mg/kg/injection, schedule: Q01DX009 (ip), vehicle: gum acacia
  survivor count: 3 of 3
dose: 300.0 mg/kg/injection, schedule: Q01DX009 (ip), vehicle: gum acacia
  survivor count: 0 of 3

## CN1C2CCC1CC(OC(=O)c1ccc(O)cc1)C2 (stereo unspecified)
dose: 37.5 mg/kg/injection, schedule: Q01DX001 (ip), vehicle: saline
  survivor count: 1 of 6

## CN1CCN(c2nc3ccccc3n3nnnc23)CC1
dose: 150.0 mg/kg/injection, schedule: Q04DX003 (ip), vehicle: saline
  survivor count: 3 of 4

## CCN(CC)C(=O)C1CCCCC1C (stereo unspecified)
[3]
  survivor count: 3 of 3

## CN(NC(=O)c1ccccc1)C(=O)c1ccccc1
[4]
  T/C: 126 % of control
[2]
  survivor count: 6 of 6

## CC(=O)Nc1nn[nH]n1
[5]
  survivor count: 6 of 6

## COC(=O)C1CC(O)CC(C(=O)OC)O1 (stereo unspecified)
[1]
  survivor count: 2 of 6

## CNCc1ccccc1C(O)c1ccc(Cl)cc1 (stereo unspecified)
dose: 50.0 mg/kg/injection, schedule: Q04DX003 (ip), vehicle: Klucel (hydroxypropylcellulose) (HPC)
  survivor count: 1 of 4
dose: 100.0 mg/kg/injection, schedule: Q04DX003 (ip), vehicle: Klucel (hydroxypropylcellulose) (HPC)
  survivor count: 6 of 6
dose: 200.0 mg/kg/injection, schedule: Q01DX009 (ip), vehicle: Klucel (hydroxypropylcellulose) (HPC)
  survivor count: 0 of 6
[4]
  survivor count: 4 of 6
[5]
  survivor count: 0 of 6
[2]
  survivor count: 0 of 6 and 1 of 4

## CCN(CC)CCOc1ccc(N=N/C(C(C)=O)=C(\C)O)cc1
[6]
  T/C: 87, 93, 101 % of control
  survivor count: 6 of 6
dose: 200.0 mg/kg/injection, schedule: Q04DX002 (ip), vehicle: saline
  survivor count: 0 of 3 and 0 of 6
[3]
  survivor count: 0 of 3 and 1 of 6

## Cc1ccc(S(=O)(=O)OCCCl)cc1
dose: 400.0 mg/kg/injection, schedule: Q04DX002 (ip), vehicle: saline with Tween-80
  survivor count: 1 of 3
